Data source: PubChem BioAssay AID602196 (INSERM, 2012)
In all, the deposit lists about 23,000 reagents; this is a random part of them. 455 of them (2%) count as active. 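Active includes both protection and sensitisation; some change values fall well beyond the stated -50 to +50 range.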 Unmarked entries are inactive. Further read-outs or replicates are left out here. The record does not give: the amount of reagent.

- Purpose: 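Knock-downs that protect lung cancer cells from cisplatin or sensitise them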
- System: human A549 lung cancer cells
- Reagents: siRNA pair against human genes
- Duration: 48 h transfection before cisplatin; time from cisplatin to read-out not stated
- Treatment: cisplatin at a dose killing half of control-siRNA cells; exact dose and duration not given
- Measurement: 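Shift in cisplatin death relative to control siRNA, from -50 (all cells die) to +50 (no cells die); siRNAs harmful on their own scored 0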
- Scale: two-siRNA summed score (-2 to +2): higher = both siRNAs protect from cisplatin killing; -2 means both sensitise; mean protection from cisplatin (shift in death): higher = protection from cisplatin killing
- Call rule: 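siRNAs harmful alone (LDH or WST-1) get 0; others get +1 for less and -1 for more cisplatin killing; genes are active when the two siRNAs give the same sign, summing to ±2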
- Meaning of the calls: active = both siRNAs shift cisplatin killing the same way; inactive = no consistent shift, or siRNA harmful alone

LOC201175 | two-siRNA summed score (-2 to +2) = 0; mean protection from cisplatin (shift in death) (%) = 10.4
PCDHA7 | two-siRNA summed score (-2 to +2) = 0; mean protection from cisplatin (shift in death) (%) = 5.3
LOC389443 | two-siRNA summed score (-2 to +2) = 0; mean protection from cisplatin (shift in death) (%) = -1.7
CCDC188 | two-siRNA summed score (-2 to +2) = 0; mean protection from cisplatin (shift in death) (%) = -2.9
SULT1A1 | two-siRNA summed score (-2 to +2) = 0; mean protection from cisplatin (shift in death) (%) = 2.6
LOC442503 | two-siRNA summed score (-2 to +2) = 0; mean protection from cisplatin (shift in death) (%) = 3.1
LOC442598 | two-siRNA summed score (-2 to +2) = 0; mean protection from cisplatin (shift in death) (%) = 10.5
DCN | two-siRNA summed score (-2 to +2) = 0; mean protection from cisplatin (shift in death) (%) = 1.9
CFL1P6 | two-siRNA summed score (-2 to +2) = 1; mean protection from cisplatin (shift in death) (%) = 8.2
GPD1 | two-siRNA summed score (-2 to +2) = 0; mean protection from cisplatin (shift in death) (%) = 7.4
SLX9 | two-siRNA summed score (-2 to +2) = 0; mean protection from cisplatin (shift in death) (%) = -0.2
GFUS | two-siRNA summed score (-2 to +2) = 0; mean protection from cisplatin (shift in death) (%) = -2.5

Reformatted: results already given
gene	two-siRNA summed score (-2 to +2)	mean protection from cisplatin (shift in death) (%)
LOC442598	0	10.5
DCN	0	1.9
